In patent US10287530B2, “Surfactants based on monounsaturated fatty alcohol derivatives” (priority 2013, dated 2019):

Assay: Gardner Straight-Line Washability Test (aqueous degreaser, greasy dirt soil on white vinyl tile)
Settings: versus control (WA-Extra)

Substance | Rating
Undecylenic Alcohol Sulfate, Sodium Salt [Unsat. C11 alcohol Na sulfate] | equal
1-Undecanol, 3EO Ether Sulfate, Sodium Salt [Sat. C11 alcohol 3EO Na sulfate] | equal
Undecylenic Alcohol, 3EO Ether Sulfate, Sodium Salt [Unsat. C11 alcohol 3EO Na sulfate] | equal
